Reference: PubChem BioAssay AID1259308 (NCATS, 2017)

- Test: 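Knock-downs that increase output of a recombinant reporter protein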 (primary screen)
- Cells: human HEK293 embryonic kidney cells stably expressing firefly luciferase (HEK-CMV-Luc2-Hygro)
- Reagents: single siRNA against human genes, 0.8 pmol siRNA per well
- Timing: 72 h
- Detection: 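Luciferase light (ONE-Glo) measured on one replicate plate set and viability (CellTiter-Glo) on the other, scaled to a negative control siRNA, with robust z-scores and luciferase per cell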
- Direction: total luciferase, z-score and total luciferase, % of control: higher = more reporter protein produced
- Call rule: 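Active when the median/MAD z-score for overall luciferase is greater than 3; a gene was taken forward for validation with new siRNAs if at least two of its three siRNAs passed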
- Meaning of the calls: active = raised luciferase; inactive = no rise
The whole screen tested about 59,000 reagents; below is a random part of them. About 1,510 of them (2.6%) count as active. 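Calls use total luciferase alone and ignore viability, so some active siRNAs may act by altering cell number.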 Reagents against one gene are numbered here. Not all columns of the deposit are shown.

With AZGP1 (alpha-2-glycoprotein 1, zinc-binding) #1, how do the results read?
total luciferase, z-score: 1.8; total luciferase, % of control: 118; Outcome: inactive

With AZGP1 (alpha-2-glycoprotein 1, zinc-binding) #2, how do the results read?
total luciferase, z-score: -1.38; total luciferase, % of control: 54.4; Outcome: inactive

How did the screen score AZGP1 (alpha-2-glycoprotein 1, zinc-binding) #3?
total luciferase, z-score: 1.98; total luciferase, % of control: 121; Outcome: inactive

Which result is listed for CLDN4 (claudin 4) #1?
total luciferase, z-score: -0.0297; total luciferase, % of control: 81.3; Outcome: inactive

What is on record for CLDN4 (claudin 4) #2?
total luciferase, z-score: 2.04; total luciferase, % of control: 122; Outcome: inactive

For CLDN4 (claudin 4) #3, how do the results read?
total luciferase, z-score: -0.644; total luciferase, % of control: 69.1; Outcome: inactive

What is on record for WBP1L (WW domain binding protein 1 like) #1?
total luciferase, z-score: 0.0544; total luciferase, % of control: 83; Outcome: inactive

Which result is listed for WBP1L (WW domain binding protein 1 like) #2?
total luciferase, z-score: 0.488; total luciferase, % of control: 91.6; Outcome: inactive

Which result is listed for WBP1L (WW domain binding protein 1 like) #3?
total luciferase, z-score: 0.542; total luciferase, % of control: 92.7; Outcome: inactive

Which result is listed for SLC16A3 #1?
total luciferase, z-score: -0.571; total luciferase, % of control: 70.5; Outcome: inactive

For SLC16A3 #2, what does the deposit list?
total luciferase, z-score: 3.41; total luciferase, % of control: 150; Outcome: active

Which result is listed for SLC16A3 #3?
total luciferase, z-score: 0.33; total luciferase, % of control: 88.4; Outcome: inactive

2 of these entries in another layout.
Target gene	reagent	total luciferase, z-score	total luciferase, % of control	Outcome
CLDN4 (claudin 4)	3	-0.644	69.1	inactive
WBP1L (WW domain binding protein 1 like)	1	0.0544	83	inactive

The results go on.
For KCTD15 (potassium channel tetramerization domain containing 15) #1, what was measured?
total luciferase, z-score: -1.34; total luciferase, % of control: 55.2; Outcome: inactive

With KCTD15 (potassium channel tetramerization domain containing 15) #2, what does the deposit list?
total luciferase, z-score: 3.07; total luciferase, % of control: 143; Outcome: active

Which result is listed for KCTD15 (potassium channel tetramerization domain containing 15) #3?
total luciferase, z-score: 3.62; total luciferase, % of control: 154; Outcome: active

Which result is listed for TLN2 (talin 2) #1?
total luciferase, z-score: -0.425; total luciferase, % of control: 73.4; Outcome: inactive

With TLN2 (talin 2) #2, what was measured?
total luciferase, z-score: 0.0165; total luciferase, % of control: 82.2; Outcome: inactive

For TLN2 (talin 2) #3, what was measured?
total luciferase, z-score: -0.22; total luciferase, % of control: 77.5; Outcome: inactive

With CDC27 (cell division cycle 27) #1, how do the results read?
total luciferase, z-score: -0.615; total luciferase, % of control: 69.6; Outcome: inactive

With CDC27 (cell division cycle 27) #2, what does the deposit list?
total luciferase, z-score: -0.514; total luciferase, % of control: 71.7; Outcome: inactive

With CDC27 (cell division cycle 27) #3, what does the deposit list?
total luciferase, z-score: -1.81; total luciferase, % of control: 46; Outcome: inactive
